Results: paper doi:10.1101/2022.07.11.499617
No constants are given. Whether binding was seen depends on the method and setting. Binding calls can cover weak binding; strength is not graded here. Where a sequence is shown, tags or fusion partners need not be part of it.

Columns and labels:
[1] = target: cytosolic domain of BAK1 fused with DNA-binding domain (BD-BAK1_CD) (Arabidopsis thaliana); test: two-hybrid
[2] = target: ERECTA cytosolic domain fused to the DNA binding domain (BD-ER_CD) (Arabidopsis thaliana); test: two-hybrid

B1: PUB30 full length fused to the activation domain (AD-PUB30) (enzyme, UniProt Q058P4 1-448)
chain: MPMFQPLKRDGLIGFEGGGDGQVLDLDTAVKDGVLGGVNGGGVGVVDEKLDLKKMIKELDLQDIPSVFICPISLEPMQDPVTLCTGQTYERLNIHKWFNLGHLTCPTTMQELWDDTVTPNKTLHHLIYTWFSQKYVLMKKRSEDVQGRAIEILGTLKKAKGQARVHALSELKQIVIAHLMARKTVVEEGGVSVISSLLGPFTSHAVGSEVVAILVSLDLDSDSKSGLMQPAKVSLIVDMLNDGSNETKINCARLIRGLVEEKGFRAELVSSHSLLVGLMRLVKDKRHRNGVSPALRLLKPISVHKQVRSLMVSIGAVPQLVDILPSLDPECLELALFVLDALCTDVEGRVAVKDSANTIPYTVRVLMRVSENCTNYALSILWSVCKLAPEECSPLAVEVGLAAKLLLVIQSGCDAALKQRSAELLKLCSLHYSDTMFISKCKLTRTIQ
binding [1]: binds | binding [2]: binds

B2: PUB31 full length fused to the activation domain (AD-PUB31) (enzyme, UniProt Q9FHN9 1-444)
chain: MPMFQPSKNGGFDGHILDLHSAVKDGVLGGGDGKFLVVVTDEKKKLDLKEMISELELPEIPSVFICPISLEPMQDPVTLCTGQTYERSNILKWFNIGHCTCPTTMQELWDDLVTPNKTLHQLIYTWFSQKYVLMKKRSEDVQGRAIEILGTLRKAKGKAKVHALSELKQVVMAHAIAKKTVVDEGGVFVISSLLSPFTSHAVGSEAIAILVNLELDSDSKAGLMQPARVSLMVDMLNDGSIETKINCARLIGRLVEEKGFRAELVSSHSLLVGLMRLVKDRRRRNGVSPALTLLKSVSVHKQVRNLLVRIGAVPQLVDVLPCLDVECLESALFVLDSLCLESEGRIALKDSVNTIPHTVRLLMKVSEKCTNYAISILWSVCKLASEECSSLAVEVGLAAKLLLVIQSGCDPALKQRSAELLKLCSLHYSDSMFISKCKLTRTIQ
binding [1]: binds | binding [2]: binds
